Two substances from publication PMC9326220 can be followed below.

One assay has as its target T1, NECAB2-Flag (mouse) (UniProt Q91ZP9).
T1 sequence: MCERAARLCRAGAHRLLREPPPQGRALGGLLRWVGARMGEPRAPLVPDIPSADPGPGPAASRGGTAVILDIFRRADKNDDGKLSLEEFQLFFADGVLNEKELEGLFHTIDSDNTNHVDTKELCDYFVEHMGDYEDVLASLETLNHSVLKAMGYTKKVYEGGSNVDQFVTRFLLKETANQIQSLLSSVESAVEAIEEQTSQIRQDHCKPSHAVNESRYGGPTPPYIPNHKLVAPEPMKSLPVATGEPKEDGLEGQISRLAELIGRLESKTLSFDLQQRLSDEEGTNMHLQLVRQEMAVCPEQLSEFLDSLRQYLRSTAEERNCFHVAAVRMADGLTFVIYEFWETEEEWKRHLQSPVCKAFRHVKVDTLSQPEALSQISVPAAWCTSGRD
Briefly: co-IP; transiently transfected HEK293 cells lysed in NETT buffer (50 mM Tris-HCl, 150 mM NaCl, 0.1 mM EDTA, 1% Triton X-100); supernatant with mouse anti-Myc, anti-EGFP or anti-Flag antibody overnight at 4°C, protein A/G agarose 4 h, 5 washes; immunoblot; normal mouse IgG and tag-only vector as controls. (In general: Immunoblotting shows a protein as a band on a membrane.)

The target in assay [1] is T2, Flag-ABM (antibiotic biosynthesis monooxygenase domain of NECAB2) (mouse) (UniProt Q91ZP9).
T2 sequence: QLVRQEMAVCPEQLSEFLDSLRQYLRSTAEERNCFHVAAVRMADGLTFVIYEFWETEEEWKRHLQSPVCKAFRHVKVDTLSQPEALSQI
The assay is described as above.

These are yes or no findings as the source states them, for the method shown. In cells and extracts the contact can be indirect. For part of these data: A result given as binding can be weak or reduced; the word gives no strength. Where a sequence is shown, tags or fusion partners need not be part of it.

As to “EGFP-EF (EF-hand domain of NECAB2) (mouse) (domain or fragment)”, the binding entry with NECAB2-Flag (mouse) is listed as “no binding”.
“EGFP-NHR (NECAB homology region of NECAB2) (mouse) (domain or fragment)”: the binding result in assay [1] is reported as “no binding”; with NECAB2-Flag (mouse), “binds”.
